Experimental findings from paper doi:10.1101/2025.04.30.651444 are described below.

Chains of the proteins cited; added tags and fusions are not shown. Lines headed by an entry give the natural chain unless they say otherwise; changes in a name come on top.
UniProt Q12150, whole entry: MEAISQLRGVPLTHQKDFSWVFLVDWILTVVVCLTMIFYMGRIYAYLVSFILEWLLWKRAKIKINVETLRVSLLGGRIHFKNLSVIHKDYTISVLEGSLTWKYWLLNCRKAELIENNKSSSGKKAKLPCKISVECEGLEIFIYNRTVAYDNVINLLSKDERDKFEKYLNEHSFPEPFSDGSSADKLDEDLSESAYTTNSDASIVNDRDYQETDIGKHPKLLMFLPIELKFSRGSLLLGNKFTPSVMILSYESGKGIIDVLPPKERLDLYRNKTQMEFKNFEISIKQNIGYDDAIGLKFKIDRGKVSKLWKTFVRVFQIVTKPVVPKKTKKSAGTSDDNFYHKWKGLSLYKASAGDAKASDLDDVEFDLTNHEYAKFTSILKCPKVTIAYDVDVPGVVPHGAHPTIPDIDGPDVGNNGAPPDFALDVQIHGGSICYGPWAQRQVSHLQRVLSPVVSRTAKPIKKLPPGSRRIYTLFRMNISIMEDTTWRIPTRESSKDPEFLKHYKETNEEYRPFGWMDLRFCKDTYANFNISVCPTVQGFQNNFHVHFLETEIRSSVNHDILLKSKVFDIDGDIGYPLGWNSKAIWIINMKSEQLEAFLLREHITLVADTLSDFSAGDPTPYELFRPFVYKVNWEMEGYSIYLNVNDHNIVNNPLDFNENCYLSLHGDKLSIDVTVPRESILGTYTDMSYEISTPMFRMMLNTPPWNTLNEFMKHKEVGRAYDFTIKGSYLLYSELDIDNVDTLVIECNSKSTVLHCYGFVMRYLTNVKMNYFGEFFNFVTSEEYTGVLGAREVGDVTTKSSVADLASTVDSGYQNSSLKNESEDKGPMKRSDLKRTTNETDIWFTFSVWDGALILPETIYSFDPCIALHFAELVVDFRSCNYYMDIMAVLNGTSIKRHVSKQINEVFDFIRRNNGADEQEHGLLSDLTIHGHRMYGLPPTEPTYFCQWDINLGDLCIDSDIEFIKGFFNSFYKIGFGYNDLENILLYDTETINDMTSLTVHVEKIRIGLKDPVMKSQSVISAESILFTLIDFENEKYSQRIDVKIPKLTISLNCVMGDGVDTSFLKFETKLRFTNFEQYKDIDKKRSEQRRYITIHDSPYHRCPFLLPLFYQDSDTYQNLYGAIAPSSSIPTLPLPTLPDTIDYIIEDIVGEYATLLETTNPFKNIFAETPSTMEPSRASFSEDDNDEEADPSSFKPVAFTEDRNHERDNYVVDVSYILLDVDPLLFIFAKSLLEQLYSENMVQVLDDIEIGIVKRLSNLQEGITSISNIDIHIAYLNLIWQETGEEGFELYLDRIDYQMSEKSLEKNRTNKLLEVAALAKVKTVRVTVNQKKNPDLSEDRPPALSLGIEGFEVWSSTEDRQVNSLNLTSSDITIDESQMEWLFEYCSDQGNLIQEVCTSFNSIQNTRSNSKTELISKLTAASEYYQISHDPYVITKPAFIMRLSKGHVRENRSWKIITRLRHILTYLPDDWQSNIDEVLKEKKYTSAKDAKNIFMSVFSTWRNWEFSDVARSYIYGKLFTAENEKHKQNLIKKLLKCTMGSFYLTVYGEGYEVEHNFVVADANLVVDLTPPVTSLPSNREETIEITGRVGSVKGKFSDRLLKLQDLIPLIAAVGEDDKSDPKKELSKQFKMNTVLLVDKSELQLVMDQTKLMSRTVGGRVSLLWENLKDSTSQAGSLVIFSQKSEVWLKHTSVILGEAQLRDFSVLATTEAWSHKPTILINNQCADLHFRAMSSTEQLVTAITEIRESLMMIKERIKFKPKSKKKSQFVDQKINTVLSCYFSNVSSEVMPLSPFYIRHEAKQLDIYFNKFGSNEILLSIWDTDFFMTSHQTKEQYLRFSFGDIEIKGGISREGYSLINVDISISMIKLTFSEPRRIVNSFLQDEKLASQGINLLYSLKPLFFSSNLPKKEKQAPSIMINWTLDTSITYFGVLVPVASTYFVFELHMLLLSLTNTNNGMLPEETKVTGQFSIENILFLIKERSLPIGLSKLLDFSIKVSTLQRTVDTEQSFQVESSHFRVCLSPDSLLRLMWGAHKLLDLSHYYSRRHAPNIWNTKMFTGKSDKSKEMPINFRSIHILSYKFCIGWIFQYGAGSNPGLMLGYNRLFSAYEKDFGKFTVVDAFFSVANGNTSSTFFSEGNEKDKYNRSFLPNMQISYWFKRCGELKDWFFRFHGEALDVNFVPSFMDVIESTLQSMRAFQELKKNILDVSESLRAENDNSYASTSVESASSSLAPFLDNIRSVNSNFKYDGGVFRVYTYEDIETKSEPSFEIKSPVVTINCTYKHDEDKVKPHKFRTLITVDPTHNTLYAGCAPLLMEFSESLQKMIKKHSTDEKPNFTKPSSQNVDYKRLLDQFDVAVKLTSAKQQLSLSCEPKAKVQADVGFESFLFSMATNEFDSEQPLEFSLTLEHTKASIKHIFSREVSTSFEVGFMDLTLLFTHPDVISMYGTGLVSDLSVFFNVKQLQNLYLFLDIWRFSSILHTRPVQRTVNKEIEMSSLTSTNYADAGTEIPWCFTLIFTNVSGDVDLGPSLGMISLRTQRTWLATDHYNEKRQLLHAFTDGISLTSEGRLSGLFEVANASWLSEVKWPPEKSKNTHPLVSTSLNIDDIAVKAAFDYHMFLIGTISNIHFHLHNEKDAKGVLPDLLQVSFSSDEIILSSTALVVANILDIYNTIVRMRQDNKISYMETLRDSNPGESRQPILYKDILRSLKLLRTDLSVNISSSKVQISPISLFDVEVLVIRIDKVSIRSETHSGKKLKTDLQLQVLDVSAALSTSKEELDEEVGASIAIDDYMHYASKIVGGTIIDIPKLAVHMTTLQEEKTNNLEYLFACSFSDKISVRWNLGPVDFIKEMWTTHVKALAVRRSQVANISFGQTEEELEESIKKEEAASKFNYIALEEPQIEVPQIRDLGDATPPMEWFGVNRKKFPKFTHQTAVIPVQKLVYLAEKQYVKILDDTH

Results are given in words; binding and its absence hold for the method and conditions named. In cells and extracts the contact can be indirect. Some entries that bind do so weakly or less than the wild type. Sequences can lack the tags named with a protein.

The target of the assay is Csf1 tagged internally with the Envy variant of GFP (Csf1^GFP) (S. cerevisiae) (UniProt Q12150). Briefly: co-IP.

B1: Dlt1-HA (Ymr126c/Dlt1) (protein, UniProt Q04216 1-342)
chain: MSGFAKLKSWLYKASLFVSLILLIGFSVVLPIDSIAQASKSENNAFNTFIVVGALVVFGVFCIFIIIGRMLFHKSCLKDIPRRYIPITPADLPHRSSREAVLQNMERSKELTILLKKPKDPVIHDGLEPPRRCDYPLDEKLFPEYLNYADCIKSLTDRLKYHGLFLNNLDVRMNLEDTFADVVNSQFVNHNANKIQLEKAKEFIDLYETIRFSGKDVTRDQFIKFVKFCLYFGEVSLTRDTSFANLHNFRLNGSSNNIGRTESKYSINPFDENEYAQDDMHYFPEPPTHLVRESSISTVARHVSSGVDLTNSEEHPLDTDSDCNALRLKLSKADSYRSVIRH
With B1, the binding entry is listed as “binds”.

B2: May24-HA (Ypr153w/May24, yeast TMEM170 family protein) (protein, UniProt Q06537 1-140)
chain: MRSFVTNNDIPVGYVTPKFPSLYWPINNSKYNTAFLYYISDIWKFSLYWTLIFNGAFYVTAGVYASLTHRKKAGSVWIFVMYVLYGGVQGLTTGTVMGFLIGAIYRSGLFSMSTWVPLCCAVVQILFDVVLSYSMVGSVM
As for B2, the binding entry is “binds”.
